The other results are listed elsewhere or left out. Single values are uncertain here, since repeats match poorly.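 HEK293T cells were given each compound shortly before transfection with a reporter in which red mCherry is followed by the SARS-CoV-2 frameshift element and then GFP in the −1 frame, so GFP appears only after frameshifting.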

This assay concerns HEK293T. Put plainly: percent viability (nuclei count) relative to control; higher = more viable cells. Conditions: 10 µM; 24 h.
On to `Oc1ccccc1-c1nnco1` [fenadiazole], for which the percent viability was 93.4%.
As for `N.N.O=C([O-])C[O-].[Pt+2]` [Nedaplatin], the percent viability came to 196%.
As for `CCOc1cc(CC(=O)N[C@@H](CC(C)C)c2ccccc2N2CCCCC2)ccc1C(=O)O` [repaglinide], the percent viability was determined as 164%.
For `c1ccc2c(c1)CCCC2C1=NCCN1` (stereo not drawn) [tetryzoline], the percent viability was 184%.
`Cn1c(=O)c2[nH]cnc2n(C)c1=O` [aminophylline]: the percent viability amounted to 108%.
As for `CCCCCCCC(=O)O` [octanoic acid], the percent viability came to 122%.
Regarding `CN1CCC[C@@H]1Cc1c[nH]c2ccc(CCS(=O)(=O)c3ccccc3)cc12`, the percent viability was 97%.
With `CC(C)[C@@H]1NC(=O)[C@H](CCCCN)NC(=O)[C@@H](Cc2c[nH]c3ccccc23)NC(=O)[C@H](Cc2ccc(O)cc2)NC(=O)[C@H](C)N(C)C(=O)[C@H](Cc2ccccc2)NC1=O` [seglitide] the figure was 187%.
